This passage reports isolated yield and isolated mass results from US4098778A (Hoffmann-La Roche Inc., priority 1977, dated 1978).

The chains behind the UniProt entries cited, without tags or fusion partners. Where a name states a change or a piece, a line headed by the entry shows the natural chain unless it says otherwise.
UniProt P01203: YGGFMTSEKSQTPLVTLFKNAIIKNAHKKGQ

The data set can be described thus: general procedure: Boc solid-phase peptide synthesis; chloromethylated copolystyrene-divinylbenzene resin. The following applies: whole synthesis, scale 50 μmol.

The substance “βc -endorphin-(6-31) (TSEKSQTPLVTLFKNAIIKNAHKKGQ; Beta-endorphin; UniProt P01203 6-31, looked up, fragment)” gave an isolated mass of 48 mg. Further, the isolated yield (overall, from 50 μmol starting resin) is reported as 33%.
